# PubChem BioAssay AID504444 (National Center for Advancing Translational Sciences (NCATS), 2011)
# Several values for one entry are separate records, joined by “and”; a condition that tells them apart may be missing. Identical values can stand only once. Out of some 360,000 compounds screened, about 7,500 (2.1%) were called active. Inconclusive means that the source gave no clear call. Such entries were picked first, then a sample of the others. The call rests on the fitted dose curve; in most records, active means well fitted inhibition curve with a large enough effect; inconclusive means small, poorly fitted or top-dose-only effect, or effect the other way; inactive means flat fitted curve, though single readings scatter. Potencies of inconclusive entries are doubtful fits and often do not repeat.
# Assay: Nrf2 qHTS screen for inhibitors; further: nearly all actives have a fitted effect of over 60% in size
# Conditions: A549 ARE-Fluc reporter, luciferase luminescence, 18-24 h; series mostly up to 46 µM
# How it was run: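 Nrf2 function is reported as luminescence of an ARE-controlled luciferase in A549 cells. Compounds were tested at several concentrations, and a CellTiter-Fluor read on the same wells flagged cytotoxicity.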
# Potency means the concentration at half of the fitted maximal effect.
row,Structure (SMILES),Potency
1,COc1ccc(-n2c(SCC(=O)Nc3ccccc3OC)nc(O)cc2=O)cc1,inactive
2,CCOc1ccccc1NC(=S)NCCc1ccc(F)cc1,inactive
3,O=C(Nc1cccs1)Nc1ccc(F)cc1F,"inconclusive: 3.66 µM [activator, single point] and inconclusive: 29.1 µM [activator, single point]"
4,CC(C)(C)OC(=O)NC1CCN(S(=O)(=O)c2ccc3c(c2)OCCO3)CC1,"inconclusive: 25.9 µM [falling, single point]"
5,Cn1c(=N)n(CC(=O)c2ccc(F)cc2)c2ccccc21,"inconclusive: 1.3 µM [activator, partial curve]"
6,Cc1ccc(Cl)cc1N1CCN(C(=O)Cc2cn(C)c3ccccc23)CC1,"inconclusive: 20.6 µM [falling, single point]"
7,Cc1ccc(S(=O)(=O)N2CCC(C(=O)Nc3ccccc3N3CCCCC3)CC2)cc1,"inconclusive: 9.2 µM [falling, partial curve]"
8,O=C1NC(c2ccccc2)=C(c2ccc3ccccc3n2)C(c2ccccc2)N1 (stereo not drawn),"inconclusive: 6.51 µM [activator, single point]"
9,CCS(=O)(=O)c1ccc2oc(Nc3ccccc3Cl)nc2c1,"inconclusive: 20.6 µM [activator, partial curve]"
10,Cn1ccc(NC(=O)c2ccc(Cl)cc2Cl)n1,"inconclusive: 14.6 µM [activator, partial curve]"
11,O=C(Nc1nccs1)c1ccc(Br)s1,"inconclusive: 2.06 µM [activator, full curve]"
12,COc1ccc2c(c1)C(C)=CC(C)(C)N2C(=O)CSc1nnc(-c2ccc(C)cc2)o1,"inconclusive: 18.4 µM [falling, partial curve, poor fit]"
13,O=C(CCCCn1c(=O)[nH]c2ccccc2c1=O)N1CCN(c2cccc(C(F)(F)F)c2)CC1,"inconclusive: 20.6 µM [falling, single point]"
14,Cc1ccc(Nc2nc(C)nc3c2oc2ccccc23)cc1,"inconclusive: 0.651 µM [activator, full curve, poor fit]"
15,Cc1ccc2nc(CCCc3nc4ccc(C)cc4[nH]3)[nH]c2c1,"inconclusive: 32.6 µM [activator, partial curve, poor fit]"
16,O=c1cc(CN2CCN(S(=O)(=O)c3ccc4ccccc4c3)CC2)nc2sccn12,"inconclusive: 20.6 µM [falling, single point]"
17,CNC(=S)N/N=C/c1ccc(N(C)C)cc1,"inconclusive: 8.2 µM [activator, partial curve]"
18,CC(=O)c1cnc(Nc2ccccc2)s1,"inconclusive: 1.84 µM [activator, partial curve, poor fit]"
19,O=C(NC(=S)Nc1ccc(-c2nc3ncccc3o2)cc1)c1ccccc1F,"inconclusive: 13 µM [falling, partial curve]"
20,COc1cccc2c1cc1c(=O)n(CC(=O)N3CCN(c4cccc(C(F)(F)F)c4)CC3)nc(C)n12,inactive
21,CCOc1ccccc1NC(=O)C(CC(C)C)NC(=O)C1CCC(C)CC1 (stereo not drawn),"inconclusive: 2.91 µM [activator, full curve]"

row,Structure (SMILES),Potency
1,Cc1cccn2cc(-c3c[nH]c4ccccc34)nc12,"inconclusive: 4.61 µM [activator, partial curve, poor fit]"
2,COc1cccc(-c2cc(C(=O)Nn3cnnc3)c3ccccc3n2)c1,"inconclusive: 16.4 µM [falling, partial curve, poor fit]"
3,CSc1cccc(NC(=O)c2nnn(Cc3ccccc3)c2N)c1,"inconclusive: 5.8 µM [falling, full curve, poor fit]"
4,CCCCN(CC)C(=O)CSc1nc2n[nH]c(C)c2c(=N)n1-c1cccc(C)c1,"inconclusive: 13 µM [falling, partial curve, poor fit]"
5,Cc1ccc(NC(=O)CCc2c(C)nn(-c3ccc(N4CCOCC4)nn3)c2C)c(C)c1,"inconclusive: 9.2 µM [activator, partial curve, poor fit]"
6,N/C(=N\OC(=O)c1ccco1)c1ccc(Br)cc1,"inconclusive: 29.1 µM [activator, single point]"
7,COc1ccc(S(=O)(=O)N2CCc3ccccc32)cc1C(=O)OCc1c(C)noc1C,"inconclusive: 29.1 µM [falling, single point]"
8,CN(CC(=O)NCc1ccc(F)cc1)CC(=O)Nc1ccc(Cl)c(C(F)(F)F)c1,"inconclusive: 29.1 µM [falling, single point]"
9,COC(=O)c1cc(-c2ccc(C)o2)nc2ccccc12,"inconclusive: 0.0041 µM [falling, full curve, poor fit]"
10,CC1=C(c2ccc(C(C)C)cc2)S(=O)(=O)N=C1N1CCC(C(=O)NCc2ccccc2)CC1,"inconclusive: 18.4 µM [falling, partial curve, poor fit]"
11,COc1ccc(-c2ccc(C3C4C=CCCC4(C)C(=O)N3Cc3ccccc3)c(F)c2)cc1 (stereo not drawn),"inconclusive: 10.3 µM [falling, single point]"
12,O=C(NCc1cccnc1)C1CC(=O)N(CCc2ccccc2)C1 (stereo not drawn),"inconclusive: 3.66 µM [activator, partial curve]"
13,COc1ccc(COc2cc(-c3cccc(OC)c3)nc3ccc(NC(C)=O)cc23)cc1,"inconclusive: 29.1 µM [falling, single point]"
14,COc1cc(C2C3=C(CCCC3=O)Nc3ccc4ncccc4c32)ccc1O (stereo not drawn),"inconclusive: 0.651 µM [activator, partial curve, poor fit]"
15,Cn1c(SCc2cccc(Br)c2)nc2c1c(=O)[nH]c(=O)n2C,"inconclusive: 0.291 µM [falling, full curve, poor fit]"
16,COC(=O)c1cc(CSc2nc3ccccc3c(=O)n2C)oc1C,active: 18.4 µM
17,O=C(N/N=C/c1cnc(N2CCOCC2)s1)c1ccccc1,"inconclusive: 4.61 µM [activator, partial curve]"
18,CCOc1ccccc1NC(=O)CN1C(=O)COc2ccc(C)cc21,"inconclusive: 23.1 µM [falling, partial curve, poor fit]"
19,COc1ccc(NC(=O)C2CC(c3c(F)cccc3Cl)=NO2)cc1OC (stereo not drawn),"inconclusive: 23.1 µM [falling, single point]"
20,COc1ccc(-c2nc(CSCC(=O)NC3CCCc4ccccc43)c(C)o2)cc1 (stereo not drawn),"inconclusive: 29.1 µM [falling, single point]"
21,COc1ccc(C)cc1N(C(=O)c1ccco1)C(C(=O)NC1CCCC1)c1ccc(N2CCOCC2)cc1 (stereo not drawn),"inconclusive: 11.6 µM [falling, partial curve, poor fit]"

row,Structure (SMILES),Potency
1,O=C(Nc1cccc(-c2nc3ccccc3[nH]2)c1)c1ccccn1,"inconclusive: 1.64 µM [activator, full curve, poor fit]"
2,COc1cc(C(=O)Nc2nnc(C3CC3)s2)ccc1OCc1c(C)noc1C,"inconclusive: 29.1 µM [falling, single point]"
3,CCC(C)Oc1cc(-c2ccnc(Nc3cccc(Cl)c3)n2)ccn1 (stereo not drawn),"inconclusive: 5.8 µM [falling, partial curve, poor fit]"
4,CN(C)CC/C=C1\c2ccccc2COc2ccccc21,inactive
5,COc1ccc(NC(=O)CCC(=O)c2cccs2)c(OC)c1,"inconclusive: 20.6 µM [activator, partial curve]"
6,CC(C)CNc1nc(S(=O)(=O)c2ccccc2)c(Cl)s1,"inconclusive: 20.6 µM [falling, single point]"
7,CCc1ccc(OCCNC(=O)c2cc(SC)ccc2Cl)cc1,active: 18.4 µM
8,CSc1ccc(CCNC(=O)c2cccc3c2C(=O)N(C2CCCCC2)C3)cc1,"inconclusive: 29.1 µM [falling, single point]"
9,C/C(=N\Nc1nc2c(s1)CCCC2)c1ccccc1,"inconclusive: 6.51 µM [activator, partial curve]"
10,CCc1ccccc1NC(=O)C1CCN(c2nn3c(=O)cc(C)nc3s2)CC1,inactive
11,O=C(NC1CC2CCCC(C1)N2C(=O)Nc1ccc(Cl)c(C(F)(F)F)c1)C1CC1 (stereo not drawn),"inconclusive: 32.6 µM [falling, single point]"
12,Cc1ccccc1-n1nnnc1SCC(=O)Nc1ccc(S(=O)(=O)N2CCCC2)cc1,"inconclusive: 11.6 µM [falling, partial curve, poor fit]"
13,CCOC(=O)c1sc2nc(C)nc(N3CCN(S(=O)(=O)c4ccccc4)CC3)c2c1C,inactive
14,Cc1ccc(-n2ncc3c2ncn2c(C)nnc32)cc1C,"inconclusive: 5.17 µM [activator, partial curve]"
15,O=C(NCc1ccco1)c1cc(-c2ccc3c(c2)OCO3)on1,"inconclusive: 1.64 µM [activator, partial curve, poor fit]"
16,COC(=O)c1ccccc1NC(=O)c1nc(S(=O)(=O)Cc2ccccc2F)ncc1Cl,"inconclusive: 20.6 µM [activator, single point]"
17,COc1ccc(-c2nn3c(-c4cccc(C)c4)nnc3s2)cc1OC,"inconclusive: 29.1 µM [falling, single point]"
18,Cc1cc(C)cc(Nc2ncc3c(n2)CC(c2ccco2)CC3=O)c1 (stereo not drawn),"inconclusive: 4.11 µM [activator, single point]"
19,CCCOC(=O)C(C)n1nnc2sc(-c3ccccc3)cc2c1=O (stereo not drawn),active: 20.6 µM
20,O=C(Cc1ccccc1)NCC(=O)Nc1ccccc1Br,"inconclusive: 7.31 µM [activator, partial curve, poor fit]"
21,Cn1cnc2cc(NC(=O)c3ccco3)ccc21,"inconclusive: 3.66 µM [activator, partial curve, poor fit]"
